This is one part of the list.
These targets were tested with O=C(CCCCCCNC(=O)c1cnc(N(c2ccccc2)c2ccccc2Cl)nc1)NO [citarinostat] (assay: log2 fold change, soluble protein after heating vs DMSO (PISA); higher = thermal stabilisation; K562 cells, 10 uM, 30 min; active = over 0.2 and 3.5 SD of the protein, either way, in both replicates (recomputed)).
Summary of the method: (§1)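 For each measurement, 10 μM compound was applied for 30 min to K562 cells at 2×10^6 cells/mL. Aliquots were heated for 3 min across 48°C-58°C, pooled, and extracted in PBS with 0.5% NP-40 at 4°C; the supernatant after 21,000xg for 90 min was soluble protein. This was quantified by TMTpro 16plex LC-MS/MS with channel sums equalised, and thermal stability was reported relative to control samples from duplicates, on a log2 fold-change scale.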

By UniProt entry, the sequences of proteins in these tests, tags left out. Where a name states a change or a piece, a line headed by the entry shows the natural chain unless it says otherwise.
UniProt P35670: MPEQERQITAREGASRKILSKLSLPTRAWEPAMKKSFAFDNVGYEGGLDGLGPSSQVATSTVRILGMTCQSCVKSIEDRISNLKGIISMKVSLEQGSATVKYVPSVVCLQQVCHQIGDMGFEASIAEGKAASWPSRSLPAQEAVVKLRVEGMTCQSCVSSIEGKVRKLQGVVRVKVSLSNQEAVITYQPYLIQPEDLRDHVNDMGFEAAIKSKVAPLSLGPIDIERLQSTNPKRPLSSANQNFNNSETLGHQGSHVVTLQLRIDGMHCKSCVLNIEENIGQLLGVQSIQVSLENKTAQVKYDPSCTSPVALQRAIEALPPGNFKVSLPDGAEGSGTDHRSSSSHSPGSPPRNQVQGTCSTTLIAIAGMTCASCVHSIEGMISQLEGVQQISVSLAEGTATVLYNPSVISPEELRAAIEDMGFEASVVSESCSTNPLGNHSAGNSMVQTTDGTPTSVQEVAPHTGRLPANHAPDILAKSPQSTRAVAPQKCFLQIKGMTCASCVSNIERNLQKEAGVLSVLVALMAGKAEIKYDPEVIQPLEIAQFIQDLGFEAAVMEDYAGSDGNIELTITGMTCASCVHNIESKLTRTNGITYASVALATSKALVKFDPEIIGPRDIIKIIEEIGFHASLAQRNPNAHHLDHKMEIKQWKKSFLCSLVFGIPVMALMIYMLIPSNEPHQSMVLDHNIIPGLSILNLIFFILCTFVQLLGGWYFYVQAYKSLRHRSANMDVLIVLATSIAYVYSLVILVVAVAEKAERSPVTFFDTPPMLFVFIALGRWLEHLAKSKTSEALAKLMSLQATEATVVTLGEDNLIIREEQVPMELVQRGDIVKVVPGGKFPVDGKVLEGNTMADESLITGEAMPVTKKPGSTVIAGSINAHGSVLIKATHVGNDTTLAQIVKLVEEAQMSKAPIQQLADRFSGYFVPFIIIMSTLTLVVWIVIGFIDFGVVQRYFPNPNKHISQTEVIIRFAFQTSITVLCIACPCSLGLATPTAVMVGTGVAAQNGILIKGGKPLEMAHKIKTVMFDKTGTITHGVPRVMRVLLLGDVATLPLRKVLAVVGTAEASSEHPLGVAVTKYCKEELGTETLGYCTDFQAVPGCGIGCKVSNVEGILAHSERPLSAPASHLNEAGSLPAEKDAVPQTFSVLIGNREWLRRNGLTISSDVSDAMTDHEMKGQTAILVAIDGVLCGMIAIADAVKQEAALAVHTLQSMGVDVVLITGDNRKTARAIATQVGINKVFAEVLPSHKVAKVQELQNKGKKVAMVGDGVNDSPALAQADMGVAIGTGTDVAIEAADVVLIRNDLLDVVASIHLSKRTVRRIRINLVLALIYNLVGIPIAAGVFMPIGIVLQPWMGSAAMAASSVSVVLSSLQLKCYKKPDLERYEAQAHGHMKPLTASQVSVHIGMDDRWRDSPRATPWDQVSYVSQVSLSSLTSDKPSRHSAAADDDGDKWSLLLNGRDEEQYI
UniProt O00244: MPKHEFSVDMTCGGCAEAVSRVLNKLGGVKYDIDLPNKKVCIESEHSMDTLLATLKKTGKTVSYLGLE
UniProt Q2TAZ0: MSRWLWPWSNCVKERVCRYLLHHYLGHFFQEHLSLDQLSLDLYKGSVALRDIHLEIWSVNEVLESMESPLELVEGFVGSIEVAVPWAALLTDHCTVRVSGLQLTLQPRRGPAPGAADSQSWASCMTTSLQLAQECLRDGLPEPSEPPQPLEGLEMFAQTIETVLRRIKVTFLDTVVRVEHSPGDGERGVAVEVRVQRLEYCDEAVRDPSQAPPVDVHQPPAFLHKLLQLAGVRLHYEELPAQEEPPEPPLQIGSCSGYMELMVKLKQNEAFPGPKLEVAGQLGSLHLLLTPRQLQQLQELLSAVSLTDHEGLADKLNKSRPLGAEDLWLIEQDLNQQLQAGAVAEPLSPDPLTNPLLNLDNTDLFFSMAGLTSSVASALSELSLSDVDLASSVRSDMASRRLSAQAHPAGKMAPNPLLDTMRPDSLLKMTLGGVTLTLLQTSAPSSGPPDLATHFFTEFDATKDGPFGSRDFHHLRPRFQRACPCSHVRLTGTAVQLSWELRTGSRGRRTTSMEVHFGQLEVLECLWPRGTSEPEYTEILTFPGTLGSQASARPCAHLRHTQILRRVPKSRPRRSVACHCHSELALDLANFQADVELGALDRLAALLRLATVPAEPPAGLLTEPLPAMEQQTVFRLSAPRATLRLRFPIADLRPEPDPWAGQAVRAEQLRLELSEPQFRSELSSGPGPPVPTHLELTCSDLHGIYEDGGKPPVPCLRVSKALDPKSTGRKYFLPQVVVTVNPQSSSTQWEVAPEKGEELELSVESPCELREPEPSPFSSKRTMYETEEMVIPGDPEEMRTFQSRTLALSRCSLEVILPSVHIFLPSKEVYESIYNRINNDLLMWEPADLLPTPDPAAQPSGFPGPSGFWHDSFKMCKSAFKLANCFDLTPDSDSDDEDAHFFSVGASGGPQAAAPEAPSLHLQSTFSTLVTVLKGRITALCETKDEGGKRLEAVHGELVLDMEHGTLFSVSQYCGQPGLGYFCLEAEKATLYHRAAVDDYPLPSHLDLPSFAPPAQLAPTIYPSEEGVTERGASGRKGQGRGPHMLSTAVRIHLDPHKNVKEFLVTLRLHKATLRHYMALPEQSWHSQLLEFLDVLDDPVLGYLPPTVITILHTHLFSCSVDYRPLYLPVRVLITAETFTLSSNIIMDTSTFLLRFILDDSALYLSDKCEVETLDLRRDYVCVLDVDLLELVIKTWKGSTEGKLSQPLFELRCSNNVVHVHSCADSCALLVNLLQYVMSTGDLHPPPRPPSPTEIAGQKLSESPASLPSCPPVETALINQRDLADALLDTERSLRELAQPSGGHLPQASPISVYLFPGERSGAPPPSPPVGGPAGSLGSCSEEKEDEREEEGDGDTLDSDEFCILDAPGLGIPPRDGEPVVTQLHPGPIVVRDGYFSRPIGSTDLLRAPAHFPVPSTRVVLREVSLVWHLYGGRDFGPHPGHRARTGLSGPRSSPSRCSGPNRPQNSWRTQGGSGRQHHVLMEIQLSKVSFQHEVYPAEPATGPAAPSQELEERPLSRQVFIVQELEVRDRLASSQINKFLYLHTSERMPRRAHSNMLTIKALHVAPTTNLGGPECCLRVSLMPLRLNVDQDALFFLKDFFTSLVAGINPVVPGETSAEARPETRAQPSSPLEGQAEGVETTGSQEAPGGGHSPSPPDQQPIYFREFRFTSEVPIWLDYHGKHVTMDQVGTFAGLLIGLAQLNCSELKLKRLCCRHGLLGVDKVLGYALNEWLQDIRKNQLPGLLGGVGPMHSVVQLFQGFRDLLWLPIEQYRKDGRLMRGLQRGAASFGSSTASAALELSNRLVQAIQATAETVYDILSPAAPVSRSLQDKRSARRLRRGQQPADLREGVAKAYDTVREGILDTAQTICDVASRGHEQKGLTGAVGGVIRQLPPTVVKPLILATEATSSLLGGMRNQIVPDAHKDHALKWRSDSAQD
UniProt Q9NXU5: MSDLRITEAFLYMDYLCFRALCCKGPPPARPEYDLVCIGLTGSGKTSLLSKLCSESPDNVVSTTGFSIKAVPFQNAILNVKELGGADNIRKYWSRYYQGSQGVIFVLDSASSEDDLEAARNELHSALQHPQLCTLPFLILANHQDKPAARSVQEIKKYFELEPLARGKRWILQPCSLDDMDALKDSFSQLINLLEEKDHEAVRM
UniProt P36404: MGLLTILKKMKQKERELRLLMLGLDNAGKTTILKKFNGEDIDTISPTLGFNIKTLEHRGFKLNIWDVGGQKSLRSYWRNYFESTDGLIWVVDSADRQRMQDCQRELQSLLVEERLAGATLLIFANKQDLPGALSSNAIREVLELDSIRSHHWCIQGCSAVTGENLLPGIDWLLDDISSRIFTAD
UniProt P16615: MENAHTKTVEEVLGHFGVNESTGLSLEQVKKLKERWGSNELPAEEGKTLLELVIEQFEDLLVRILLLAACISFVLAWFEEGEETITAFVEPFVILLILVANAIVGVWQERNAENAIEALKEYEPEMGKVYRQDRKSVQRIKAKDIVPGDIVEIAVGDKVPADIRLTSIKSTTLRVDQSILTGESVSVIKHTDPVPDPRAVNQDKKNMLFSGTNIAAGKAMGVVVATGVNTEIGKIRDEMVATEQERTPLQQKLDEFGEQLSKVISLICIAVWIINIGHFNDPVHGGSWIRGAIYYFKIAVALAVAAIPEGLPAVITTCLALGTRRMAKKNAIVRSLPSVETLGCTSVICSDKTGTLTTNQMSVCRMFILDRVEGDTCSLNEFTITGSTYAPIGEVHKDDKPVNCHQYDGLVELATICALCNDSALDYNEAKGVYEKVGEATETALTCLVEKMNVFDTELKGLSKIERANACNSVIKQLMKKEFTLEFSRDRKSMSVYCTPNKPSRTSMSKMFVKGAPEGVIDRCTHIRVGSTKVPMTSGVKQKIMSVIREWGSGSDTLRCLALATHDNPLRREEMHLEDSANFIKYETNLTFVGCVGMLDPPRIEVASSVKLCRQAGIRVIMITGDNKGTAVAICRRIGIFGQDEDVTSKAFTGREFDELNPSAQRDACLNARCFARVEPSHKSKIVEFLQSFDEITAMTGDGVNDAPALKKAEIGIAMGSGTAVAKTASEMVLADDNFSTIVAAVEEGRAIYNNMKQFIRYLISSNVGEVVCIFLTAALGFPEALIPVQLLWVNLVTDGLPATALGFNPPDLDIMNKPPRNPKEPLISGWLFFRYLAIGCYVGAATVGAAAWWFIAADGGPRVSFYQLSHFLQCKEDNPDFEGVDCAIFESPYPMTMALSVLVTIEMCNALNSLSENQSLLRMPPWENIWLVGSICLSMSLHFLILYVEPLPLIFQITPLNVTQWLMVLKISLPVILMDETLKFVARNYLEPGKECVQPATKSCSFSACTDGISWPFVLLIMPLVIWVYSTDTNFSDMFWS
UniProt P14415, whole entry, looked up: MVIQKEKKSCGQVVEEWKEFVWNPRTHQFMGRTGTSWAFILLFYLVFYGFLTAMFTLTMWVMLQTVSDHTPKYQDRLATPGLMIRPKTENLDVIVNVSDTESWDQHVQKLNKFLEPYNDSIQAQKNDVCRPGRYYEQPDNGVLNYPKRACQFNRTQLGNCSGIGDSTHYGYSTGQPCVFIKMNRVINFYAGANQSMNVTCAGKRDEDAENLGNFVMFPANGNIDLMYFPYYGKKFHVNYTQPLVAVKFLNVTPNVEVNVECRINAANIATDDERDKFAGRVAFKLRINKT
UniProt Q9Y294, whole entry, looked up: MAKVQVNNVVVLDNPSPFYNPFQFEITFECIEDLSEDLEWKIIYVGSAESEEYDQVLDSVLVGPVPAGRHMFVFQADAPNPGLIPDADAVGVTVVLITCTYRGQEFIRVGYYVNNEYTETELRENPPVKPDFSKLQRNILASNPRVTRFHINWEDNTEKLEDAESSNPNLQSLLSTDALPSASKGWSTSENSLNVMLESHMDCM
UniProt P31939: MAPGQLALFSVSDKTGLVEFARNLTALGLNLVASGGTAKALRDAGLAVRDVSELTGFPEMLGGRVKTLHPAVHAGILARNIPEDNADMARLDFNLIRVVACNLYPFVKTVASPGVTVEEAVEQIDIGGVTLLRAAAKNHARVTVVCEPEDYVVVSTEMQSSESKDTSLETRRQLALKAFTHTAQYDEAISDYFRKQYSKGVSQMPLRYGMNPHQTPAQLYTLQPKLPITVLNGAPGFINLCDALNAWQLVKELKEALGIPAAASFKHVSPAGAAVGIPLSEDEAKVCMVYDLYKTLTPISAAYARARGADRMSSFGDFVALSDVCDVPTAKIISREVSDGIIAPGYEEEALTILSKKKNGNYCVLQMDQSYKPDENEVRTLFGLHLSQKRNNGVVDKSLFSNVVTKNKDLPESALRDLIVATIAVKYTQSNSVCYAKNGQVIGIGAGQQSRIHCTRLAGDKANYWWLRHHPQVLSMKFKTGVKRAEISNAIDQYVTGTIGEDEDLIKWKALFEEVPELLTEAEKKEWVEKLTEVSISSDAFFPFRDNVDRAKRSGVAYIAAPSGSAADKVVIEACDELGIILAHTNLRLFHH
UniProt Q3SXY8: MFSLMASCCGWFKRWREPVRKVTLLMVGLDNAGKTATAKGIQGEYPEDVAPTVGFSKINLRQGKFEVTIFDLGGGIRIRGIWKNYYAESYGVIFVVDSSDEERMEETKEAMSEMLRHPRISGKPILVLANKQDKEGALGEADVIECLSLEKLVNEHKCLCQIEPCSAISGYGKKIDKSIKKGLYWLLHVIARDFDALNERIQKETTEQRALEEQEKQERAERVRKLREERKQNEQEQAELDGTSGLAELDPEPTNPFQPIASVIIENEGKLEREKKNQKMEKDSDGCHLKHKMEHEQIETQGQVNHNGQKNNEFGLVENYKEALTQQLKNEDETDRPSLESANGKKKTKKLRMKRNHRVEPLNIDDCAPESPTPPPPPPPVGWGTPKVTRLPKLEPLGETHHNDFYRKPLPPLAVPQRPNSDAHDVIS
UniProt Q16864, whole entry, looked up: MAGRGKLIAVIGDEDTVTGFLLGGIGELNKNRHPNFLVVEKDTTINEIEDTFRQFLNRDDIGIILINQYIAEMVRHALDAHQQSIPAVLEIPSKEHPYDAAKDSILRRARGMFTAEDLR
UniProt P56381: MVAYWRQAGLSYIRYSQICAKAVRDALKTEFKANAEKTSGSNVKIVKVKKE

log2 fold change, inactive:
ATG9A (UniProt Q7Z3C6) 0.059
ASPH (UniProt Q12797) -0.019
ATG16L1 (UniProt Q676U5) 0.028
ARPC1B (UniProt O15143) 0.143
ARPC4 isoform 3 (UniProt P59998) -0.002
ATP7B (UniProt P35670) 0.005
ARMT1 (UniProt Q9H993) 0.118
ATOX1 (UniProt O00244) 0.091
ATP5MPL (UniProt P56378) 0.026
ATG2A isoform 3 (UniProt Q2TAZ0) 0.016
ARL15 (UniProt Q9NXU5) 0.04
ATP5F1A (UniProt P25705) 0.018
ATG2B (UniProt Q96BY7) 0.035
ARL2 (UniProt P36404) 0.054
ATP6V1C1 (UniProt P21283) 0.008
ATP2A2 (UniProt P16615) 0.038
ATP6V1B2 (UniProt P21281) -0.021
ATP6V0A1 isoform 3 (UniProt Q93050) 0.109
ARPC5 (UniProt O15511) 0.043
ATP1B2 (UniProt P14415) -0.081
ASNA1 (UniProt O43681) 0.038
ATP2A3 isoform 2 (UniProt Q93084) 0.019
ASAP1 isoform 2 (UniProt Q9ULH1) 0.08
ATP11C (UniProt Q8NB49) 0.017
ASF1A (UniProt Q9Y294) 0.047
ATM (UniProt Q13315) -0.042
ARMC8 (UniProt Q8IUR7) 0.057
ATG13 isoform 5 (UniProt O75143) 0.03
ATIC (UniProt P31939) 0.01
ARPP19 (UniProt P56211) 0.1
ATG4B isoform 2 (UniProt Q9Y4P1) 0.005
ASH2L (UniProt Q9UBL3) 0.044
ASS1 (UniProt P00966) -0.037
ARL13B (UniProt Q3SXY8) -0.033
ASAH1 isoform 2 (UniProt Q13510) 0.01
ATP6V1F isoform 2 (UniProt Q16864) 0.026
ATP5MF (UniProt P56134) 0.028
ATP5F1E (UniProt P56381) 0.022
ATP7A isoform 3 (UniProt Q04656) 0.022

The targets below were run with O=C(O)c1ccc2c(c1)nc(Nc1cccc(Cl)c1)c1ccncc12 [silmitasertib] in the same assay as above.
Summary of the method: as §1

log2 fold change, inactive:
ATG9A (UniProt Q7Z3C6) -0.023
ASPH (UniProt Q12797) 0.021
ATG16L1 (UniProt Q676U5) -0.005
ARPC1B (UniProt O15143) 0.007
ARPC4 isoform 3 (UniProt P59998) 0.039
ATP7B (UniProt P35670) 0.036
ARMT1 (UniProt Q9H993) 0.085
ATOX1 (UniProt O00244) -0.105
ATP5MPL (UniProt P56378) -0.001
ATG2A isoform 3 (UniProt Q2TAZ0) 0.011
ARL15 (UniProt Q9NXU5) 0.028
ATP5F1A (UniProt P25705) -0.007
ATG2B (UniProt Q96BY7) 0.037
ARL2 (UniProt P36404) -0.017
ATP6V1C1 (UniProt P21283) 0.03
ATP2A2 (UniProt P16615) 0.024
ATP6V1B2 (UniProt P21281) -0.003
ATP6V0A1 isoform 3 (UniProt Q93050) 0.102
ARPC5 (UniProt O15511) 0.037
ATP1B2 (UniProt P14415) 0.031
ASNA1 (UniProt O43681) 0.03
ATP2A3 isoform 2 (UniProt Q93084) 0.068
ASAP1 isoform 2 (UniProt Q9ULH1) 0.011
ATP11C (UniProt Q8NB49) 0.042
ASF1A (UniProt Q9Y294) 0.007
ATM (UniProt Q13315) -0.005
ARMC8 (UniProt Q8IUR7) 0.058
ATG13 isoform 5 (UniProt O75143) -0.028
ATIC (UniProt P31939) -0.059
ARPP19 (UniProt P56211) 0
ATG4B isoform 2 (UniProt Q9Y4P1) 0.003
ASH2L (UniProt Q9UBL3) 0.08
ASS1 (UniProt P00966) 0.02
ARL13B (UniProt Q3SXY8) 0.139
ASAH1 isoform 2 (UniProt Q13510) 0.01
ATP6V1F isoform 2 (UniProt Q16864) -0.042
ATP5MF (UniProt P56134) 0.027
ATP5F1E (UniProt P56381) -0.006
ATP7A isoform 3 (UniProt Q04656) 0.073

Source: the supplement of paper PMC10849652
